Results taken from PubChem BioAssay AID504444 (National Center for Advancing Translational Sciences (NCATS), 2011).
About 7,500 (2.1%) of roughly 360,000 compounds were called active. Inconclusive results, whose numbers are uncertain, are shown with a selection of clear calls. The call rests on the fitted dose curve; in most records, active means well fitted inhibition curve with a large enough effect; inconclusive means small, poorly fitted or top-dose-only effect, or effect the other way; inactive means flat fitted curve, though single readings scatter. Where the call is inconclusive, the potency comes from a doubtful curve fit.

experiment: Nrf2 qHTS screen for inhibitors; settings: A549 ARE-Fluc reporter, luciferase luminescence, 18-24 h; series mostly up to 46 µM; further: nearly all actives have a fitted effect of over 60% in size
Outline: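 Quantitative HTS in A549 cells stably bearing an antioxidant response element-firefly luciferase construct. Inhibition of Nrf2-driven transcription was scored by luminescence after 18-24 h of compound exposure at 37 °C.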
Potency means the concentration at half of the fitted maximal effect.

Structure (SMILES)	Potency
O=C(CC1C[C@H](C(=O)N2CCOCC2)[C@@]2(CCC3CCCC3)c3[nH]c4ccccc4c3CCN2C1=O)NCC12CC3CC(CC(C3)C1)C2 (some centres undefined)	active: 23.1 µM
Cn1c2c(c(=O)n(C)c1=O)C(C(F)(F)F)(C(F)(F)F)N=C(C1CCCCC1)N2	inconclusive: 25.9 µM [falling, partial curve, poor fit]
O=S(=O)(c1ccc2c(c1)OCCO2)N1CCC(n2nnc3cc(C(F)(F)F)ccc32)CC1	inconclusive: 23.1 µM [falling, partial curve, poor fit]
COc1ccc(OC)c(NC(=O)CCN2C(=O)c3cccc([N+](=O)[O-])c3C2=O)c1	inconclusive: 23.1 µM [falling, single point]
COc1ccc(-c2cc(C(=O)Nc3cc(C)n(Cc4ccc(Cl)cc4)n3)no2)cc1OC	active: 4.11 µM
CCOC(=O)c1sc2ccccc2c1S(=O)(=O)N1CCN(c2ccccc2F)CC1	inconclusive: 20.6 µM [falling, single point]
COc1ccc2[nH]c(=S)cc(C)c2c1	inactive
COc1ccc(N2Cc3cccc(C(=O)Nc4ccc(C)cc4)c3C2=O)cc1	inconclusive: 8.2 µM [falling, partial curve, poor fit]
C=CC[n+]1c(/C=C2\C=Cc3cc(C)ccc3N2CC)ccc2ccccc21	active: 4.61 µM
C=C1[C@@H](O)[C@@H]2O[C@]3(CC[C@H](/C=C/[C@@H](C)[C@@H]4CC(C)=CC5(O[C@H](C[C@@](C)(O)C(=O)OC)CC[C@H]5O)O4)O3)CC[C@H]2O[C@@H]1[C@@H](O)C[C@H](C)[C@H]1OC2(CCCCO2)CC[C@H]1C (some centres undefined)	active: 0.092 µM
CC1(C)CC(=O)C2=C(C1)c1c(ccc3ccccc13)NC2c1ccco1 (centres undefined)	inconclusive: 29.1 µM [falling, single point]
Cc1ccccc1-c1ccnc2c(-c3ccc(F)cc3)c(C)nn12	inconclusive: 20.6 µM [falling, single point]
COc1ccc(-n2c(=S)[nH]c3cc(C(=O)Nc4cc(C(N)=O)ccc4OC)ccc3c2=O)c(OC)c1	inactive
Cc1ccc(-c2cc(N)n(Cc3cccc(Cl)c3)n2)cc1	inconclusive: 29.1 µM [falling, single point]
Cc1ccc2[nH]c(=O)c(CN(Cc3nnnn3Cc3ccccc3)C3CCCC3)cc2c1	inactive
O=C(CCSc1nccn1Cc1ccccc1)N1CCOCC1	inconclusive: 16.4 µM [activator, partial curve, poor fit]
COc1ccc(C2Nc3ccccc3-n3c(-c4ccccc4)c4c(=O)n(C)c(=O)n(C)c4c32)cc1 (centres undefined)	inconclusive: 16.4 µM [falling, single point]
Cc1ccnc(NC(=O)c2ccc3c(c2)NC(=O)C(C)S3)c1 (centres undefined)	inconclusive: 0.461 µM [activator, partial curve, poor fit]
C/C(=N/NC(=O)c1ccccn1)c1ccc(O)cc1	inconclusive: 29.1 µM [activator, single point]
COc1ccc(NC(=O)c2ccc3c(c2)N(Cc2cccc(Cl)c2)C(=O)c2ccccc2S3(=O)=O)cc1Cl	inactive

An excerpt of these results, as comma-separated lines.
Structure (SMILES),Potency
O=C(CC1C[C@H](C(=O)N2CCOCC2)[C@@]2(CCC3CCCC3)c3[nH]c4ccccc4c3CCN2C1=O)NCC12CC3CC(CC(C3)C1)C2 (some centres undefined),active: 23.1 µM
Cn1c2c(c(=O)n(C)c1=O)C(C(F)(F)F)(C(F)(F)F)N=C(C1CCCCC1)N2,"inconclusive: 25.9 µM [falling, partial curve, poor fit]"

(cont.)

Structure (SMILES)	Potency
O=C(Nc1ccc(NC(=O)C2CC2)nc1)c1ccccn1	inconclusive: 0.82 µM [activator, full curve]
CCc1ccc(C(=O)NNC(=O)C2CCN(c3ncnc4sc(C)c(C)c34)CC2)cc1	inconclusive: 18.4 µM [falling, partial curve]
Cc1ncc(C(=O)Nc2ccccc2)[nH]1	inconclusive: 2.59 µM [activator, full curve]
Cc1ccc(-n2nc(C(=O)NCc3ccc(F)cc3Cl)c3c4ccccc4n(C)c3c2=O)cc1	inactive
Cc1ccc(OCCn2cnc3cc([N+](=O)[O-])ccc3c2=O)cc1	inactive
O=C(N[C@@H]1CCC(=O)N(CC[C@H](Oc2ccccc2)c2ccccc2)CC1)OCc1ccccc1	inconclusive: 29.1 µM [falling, single point]
Cn1c(=O)c([N+](=O)[O-])c(N2CCN(Cc3ccc4c(c3)OCO4)CC2)c2ccccc21	inconclusive: 25.9 µM [falling, single point]
COc1ccc(-c2cn3nc(N4CCC(C(=O)NCc5cccc(Cl)c5)CC4)sc3n2)cc1	inconclusive: 5.8 µM [activator, full curve]
CCOC(=O)c1c(C)nc2c(c1-c1ccc(OC)cc1)C(=O)CC(C)(C)C2	inactive
CN(C(=O)c1ccco1)c1nc(-c2ccc(F)cc2)cs1	inconclusive: 5.8 µM [activator, partial curve]
O=[S+]([O-])(c1ccc2c(c1)OCCO2)N1CCN([S+](=O)([O-])c2c(F)cc(O)cc2F)CC1	inactive
COc1ccc(CNc2nc3c(c(=O)n(Cc4ccc(F)cc4)c(=O)n3C)n2C)cc1	inconclusive: 25.9 µM [falling, single point]
CC(=O)N1CCc2c(sc3c2c(=O)n(Cc2ccccc2)c(=O)n3Cc2cccc(Cl)c2)C1	active: 20.6 µM
COc1cc(-c2noc(-c3ccc(N4CCCC4)c([N+](=O)[O-])c3)n2)cc(OC)c1OC	inconclusive: 16.4 µM [activator, single point]
CCOC(=O)c1[nH]c2ccc(OCC)cc2c1CCCN1C(=O)c2ccccc2C1=O	inconclusive: 0.291 µM [activator, full curve, poor fit]
NC(=O)c1c(NC(=O)c2ccccc2)sc2c1CCc1ccccc1-2	inconclusive: 0.13 µM [activator, full curve, poor fit]
COc1ccc(-c2csc(NC(=O)c3cc(C)oc3C)n2)cc1OC	inconclusive: 20.6 µM [falling, partial curve, poor fit]
CC(NC(=O)c1cc2sccc2n1C)c1ccc2c(c1)OCCO2 (centres undefined)	inconclusive: 25.9 µM [activator, single point]
CC1=Nc2cc(C(=O)NC3CCC(C)CC3)ccc2Sc2c(C)ccc(C)c21 (centres undefined)	inconclusive: 9.2 µM [activator, partial curve]
